Data as given in article doi:10.1101/2024.12.02.626492.
No constants are given. Whether binding was seen depends on the method and setting. Binding calls can cover weak binding; strength is not graded here. Sequences can lack the tags named with a protein.

What was measured:
[1] = target: Bos taurus tubulin, polymerised into microtubules (Bos taurus); experiment: cryo-electron tomography with subtomogram averaging; 5 uM Taxol-stabilized bovine microtubules incubated at an equimolar ratio with HsSPEF1-CH for 30 minutes in BRB80; 13-PF and 14-PF averages at 19 and 17 Å; both purified
[2] = target: Bos taurus tubulin, polymerised into microtubules (Bos taurus); experiment: TIRF microscopy (microtubule dynamics assay); GMPCPP-stabilized seeds immobilised on cover glass via antibodies; 8 uM tubulin (10% AF546) with 100/400/750/1000/2000 nM HsSPEF1-CH; BRB80, 1 mM GTP, 29 mM KCl, 35°C; both purified

- binding [1]: binds
- binding [2]: binds
B1: human SPEF1 CH domain (residues 1-125) fused to GFP (HsSPEF1-CH) (domain or fragment, UniProt Q9Y4P9-1 1-125)
chain: MASSVDEEALHQLYLWVDNIPLSRPKRNLSRDFSDGVLVAEVIKFYFPKMVEMHNYVPANSLQQKLSNWGHLNRKVLKRLNFSVPDDVMRKIAQCAPGVVELVLIPLRQRLEERQRRRKQGAGSL
